No constants are given. Whether binding was seen depends on the method and setting. In cells and extracts the contact can be indirect. A yes stands for co-enrichment or nearness to the bait. Other partners may have been found. Sequences can lack the tags named with a protein.
Biological target: T1, neuroblastoma-associated small protein (NBASP), encoded by ORF1 of FAM201A, with a C-terminal FLAG tag (human) (UniProt Q5SY85)
T1 sequence: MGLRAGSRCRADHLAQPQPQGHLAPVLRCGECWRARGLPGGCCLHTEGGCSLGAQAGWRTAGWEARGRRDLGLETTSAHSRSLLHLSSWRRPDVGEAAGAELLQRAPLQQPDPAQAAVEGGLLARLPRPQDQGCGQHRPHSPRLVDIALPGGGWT
Experiment: affinity purification with mass spectrometry; whole cell lysates of cells transfected with the ORF plasmid or the FLAG empty vector; Dynabead Protein G immunoprecipitation; SDS-PAGE, silver staining, differential bands excised and analysed by mass spectrometry

Chains of the proteins cited; added tags and fusions are not shown.
UniProt Q01469: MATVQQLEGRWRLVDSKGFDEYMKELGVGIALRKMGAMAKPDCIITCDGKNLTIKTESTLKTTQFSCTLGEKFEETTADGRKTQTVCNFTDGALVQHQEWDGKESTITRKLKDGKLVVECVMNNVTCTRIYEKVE

- binding: binds
Substance: fatty acid-binding protein 5 (FABP5) (from UniProt Q01469 1-135)
